Measured values taken from patent US20120039915A1.
No constants are given. Whether binding was seen depends on the method and setting. Some entries that bind do so weakly or less than the wild type.

Molecular target: T1, ALCAM/CD166 (UniProt Q13740)
T1 sequence (looked up): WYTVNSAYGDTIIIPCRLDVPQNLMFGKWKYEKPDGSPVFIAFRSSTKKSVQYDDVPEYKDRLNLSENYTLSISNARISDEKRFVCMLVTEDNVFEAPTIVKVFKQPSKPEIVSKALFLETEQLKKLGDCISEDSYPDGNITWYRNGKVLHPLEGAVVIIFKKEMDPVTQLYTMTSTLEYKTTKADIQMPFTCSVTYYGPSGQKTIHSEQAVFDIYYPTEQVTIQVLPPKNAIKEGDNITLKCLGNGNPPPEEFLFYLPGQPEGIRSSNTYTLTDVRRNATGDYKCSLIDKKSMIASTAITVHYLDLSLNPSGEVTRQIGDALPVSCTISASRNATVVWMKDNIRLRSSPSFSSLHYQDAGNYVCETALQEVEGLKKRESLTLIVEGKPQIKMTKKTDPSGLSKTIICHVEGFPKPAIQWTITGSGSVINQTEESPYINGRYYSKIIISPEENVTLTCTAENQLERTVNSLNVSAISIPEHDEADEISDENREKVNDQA
Assay: summary table, row 'Target antigen'

B1: GPD32 scFv (scFv)
scFv: QVQLQESGGGLVQPGGSLRLSCAASGFTFSSYALSWVRQAPGKGLEWVSAISGSGGSTYYAGSVKGRFTISRDNSKNTLYLQMNSLRAEDTAVYYCAKGLIASHWGQGTLVTVSSGGGGSGGGGSGGGGSSELTQDPAVSVALGQTVRITCQGDSLRSYYASWYQQKPGQAPVLVIYGKNNRPSGIPDRFSGSSSGNTASLTITGAQAEDEADYYCNSRDSSGIHLVFGGGTKLTVL
- binding: binds
